Data as given in PubChem BioAssay AID686938 (Drosophila RNAi Screening Center, 2013).
The screen tested about 23,000 reagents; shown is an unselected part of those with a known target gene and a result. Over the whole deposit, 75 (0.33%) were called active. 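Raw plate signals without normalisation; calls rest on plate z-scores that were not deposited; ratio present for only 364 wells.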 Names joined by + are all predicted targets of the reagent. Not stated in the record: the dose of the treatment.

Purpose: 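Fly genes required for calcium entry once internal stores are emptied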 (primary screen)
Cells: Drosophila S2R+ cells
Reagent: long dsRNA against Drosophila genes, about 0.25 µg dsRNA per well, roughly 10,000 cells
Duration: 5 days of knock-down before the calcium assay
Conditions: thapsigargin (SERCA pump blocker) to empty calcium stores; entry signal taken 4 min after adding it
Detection: 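Duplicate raw fluo-4 intensities per well from a plate reader, at rest and four minutes after thapsigargin emptied calcium stores; entry-to-rest ratio filled for only some wells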
Scale: calcium entry signal: higher = stronger calcium signal after store depletion; resting calcium signal: higher = higher resting calcium signal
Call rule: 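Called when the plate z-score of the entry-to-rest ratio, mean of duplicates, falls below −3; wells with low overall dye signal (Fmax z below −2) or more than five off-targets excluded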
Calls: active = strongly reduced calcium entry; inactive = no strong reduction

| Gene | DRSC id | calcium entry signal, replicate 1 (fluorescence units) | calcium entry signal, replicate 2 (fluorescence units) | resting calcium signal, replicate 1 (fluorescence units) | resting calcium signal, replicate 2 (fluorescence units) | Call |
| --- | --- | --- | --- | --- | --- | --- |
| CG43271 | DRSC01614 | 2.95e7 | 3.69e7 | 1.75e7 | 2.09e7 | inactive |
| CG43271 | DRSC21741 | 3.15e7 | 3.71e7 | 1.68e7 | 1.68e7 | inactive |
| CG9254 | DRSC01969 | 3.38e7 | 2.53e7 | 1.59e7 | 1.23e7 | inactive |
| Clc (Clathrin light chain) | DRSC11116 | 2.74e7 | 4.31e7 | 1.28e7 | 2.99e7 | inactive |
| ClpP (Caseinolytic protease proteolytic subunit) | DRSC02806 | 4.76e7 | – | 2.54e7 | – | inactive |
| Cortactin | DRSC16612 | 4.26e7 | 3.80e7 | 1.96e7 | 1.67e7 | inactive |
| RnrL (Ribonucleoside diphosphate reductase large subunit) | DRSC03413 | 3.01e7 | – | 2.06e7 | – | inactive |
| CG8252 | DRSC07126 | 4.90e7 | 4.39e7 | 2.04e7 | 1.96e7 | inactive |
| CG8586 | DRSC07218 | 4.61e7 | 4.35e7 | 1.91e7 | 1.92e7 | inactive |
| Cyp6t2Psi (pseudo) | DRSC01840 | 1.49e7 | 2.92e7 | 6.94e6 | 2.56e7 | inactive |
| Acbp2 (Acyl-CoA binding protein 2) | DRSC11141 | 2.09e7 | 4.50e7 | 1.10e7 | 1.95e7 | inactive |
| CG9164 | DRSC19087 | 1.97e7 | 3.38e7 | 1.07e7 | 1.60e7 | inactive |
| CG9164 | DRSC20162 | 2.83e7 | 3.36e7 | 1.47e7 | 1.61e7 | inactive |
| Act57B (Actin 57B) | DRSC04042 | 2.52e7 | – | 1.45e7 | – | inactive |
| sgl (sugarless) | DRSC21431 | 4.57e7 | 3.29e7 | 2.64e7 | 1.59e7 | inactive |
| wkd (whacked) | DRSC15777 | 4.53e7 | 3.79e7 | 2.13e7 | 1.86e7 | inactive |
| CG17159 + CG17162 | DRSC20899 | 3.79e7 | 4.01e7 | 2.22e7 | 2.01e7 | inactive |
| CG17159 + CG17162 | DRSC20900 | 3.43e7 | 4.52e7 | 1.88e7 | 1.94e7 | inactive |
| dome (domeless) | DRSC19583 | 2.71e7 | 2.59e7 | 1.31e7 | 1.26e7 | inactive |
| CG7296 | DRSC03042 | 3.66e7 | 5.47e7 | 1.69e7 | 2.67e7 | inactive |
| CG7296 | DRSC22343 | 3.27e7 | 6.24e7 | 1.55e7 | 2.86e7 | inactive |
| CG32564 | DRSC19933 | 3.84e7 | 3.45e7 | 2.11e7 | 1.55e7 | inactive |
| Usp15-31 (Ubiquitin specific protease 15/31) | DRSC04426 | 4.64e7 | – | 2.29e7 | – | inactive |
| Usp15-31 (Ubiquitin specific protease 15/31) | DRSC04532 | 3.81e7 | 4.28e7 | 2.03e7 | 2.24e7 | inactive |

Reformatted: results already given.
Gene,DRSC id,"calcium entry signal, replicate 1 (fluorescence units)","calcium entry signal, replicate 2 (fluorescence units)","resting calcium signal, replicate 1 (fluorescence units)","resting calcium signal, replicate 2 (fluorescence units)",Call
CG17159 + CG17162,DRSC20900,3.43e7,4.52e7,1.88e7,1.94e7,inactive
dome (domeless),DRSC19583,2.71e7,2.59e7,1.31e7,1.26e7,inactive
CG7296,DRSC03042,3.66e7,5.47e7,1.69e7,2.67e7,inactive
